From patent US8710008B2 (Universitetet I Oslo, priority 2008, dated 2014)

Experiment: general procedure: solution-phase peptide synthesis; EDC hydrochloride, HOBt hydrate, DIPEA
Details: for cyclisation yield: cyclisation step
[1] = late stage modification step, trifluoroacetate

Substance	step yield (coupling step)	further results
O-allyl L-seryl L-valyl L-valyl O-allyl L-seryl glycine methyl ester trifluoroacetate		step yield [1]: 96%
N-tert-butoxycarbonyl O-allyl L-seryl L-valyl L-valyl O-allyl L-seryl glycine methyl ester	89%	
N-tert-butoxycarbonyl O-allyl L-seryl α,α-dimethylglycyl L-valyl O-allyl L-seryl glycine methyl ester	73%	
N-tert-butoxycarbonyl L-prolyl L-prolyl O-benzyl L-seryl L-valyl L-valyl glycyl glycine methyl ester	78%	
(3S,6S,12S,E)-6-isopropyl-3-(2-methoxy-2-oxoethylcarbamoyl)-9,9-dimethyl-5,8,11-trioxo-1,14-dioxa-4,7,10-triazacyclo octadec-16-en-12-aminium 2,2,2-trifluoroacetate		step yield (late stage modification step): 71%
Methyl 2-((3S,6S,12S,E)-12-(tert-butoxycarbonylamino)-6-isopropyl-9,9-dimethyl-5,8,11-trioxo-1,14-dioxa-4,7,10-triaza cyclooctadec-16-enecarboxamido)acetate		cyclisation yield: 52%
N-tert-butoxycarbonyl L-prolyl L-prolyl O-allyl L-seryl L-valyl L-valine methyl ester	93%	
N-tert-butoxycarbonyl L-prolyl L-prolyl O-allyl L-seryl L-valyl L-valyl O-allyl L-seryl glycine methyl ester	73%	
Methyl 2-((3S,6S,9S,12S, E)-12-(tert-butoxycarbonylamino)-6,9-diisopropyl-5,8,11-trioxo-1,14-dioxa-4,7,10-triazacyclo octadec-16-ene-carboxamido)-acetate		cyclisation yield: 42%
(3S,6S,9S,12S,E)-6,9-diisopropyl-3-(2-methoxy-2-oxoethyl carbamoyl)-5,8,11-trioxo-1,14-dioxa-4,7,10-triazacycloocta dec-16-en-12-aminium 2,2,2-trifluoroacetate		step yield (late stage modification step, TFA salt): 95%
O-benzyl L-seryl L-valyl glycyl glycine methyl ester trifluoroacetate		step yield [1]: 92%
N-tert-butoxycarbonyl O-benzyl L-seryl L-valyl L-valyl glycyl glycine methyl ester	78%	
